In article PMC2824762, “Analysis of the role of PCNA-DNA contacts during clamp loading” (BMC Structural Biology, 2010):
No constants are given. Whether binding was seen depends on the method and setting. Some binding calls cover weakened binding; strength is not graded here.

Amino acid sequences for entries named in this document (tags omitted).
UniProt P15873: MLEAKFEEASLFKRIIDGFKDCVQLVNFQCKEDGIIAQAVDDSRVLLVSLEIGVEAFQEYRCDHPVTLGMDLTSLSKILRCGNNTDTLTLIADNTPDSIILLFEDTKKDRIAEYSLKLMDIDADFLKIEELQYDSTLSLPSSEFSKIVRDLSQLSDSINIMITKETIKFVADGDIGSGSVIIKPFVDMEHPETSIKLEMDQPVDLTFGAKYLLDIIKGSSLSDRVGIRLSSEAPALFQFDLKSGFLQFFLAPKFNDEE

Target: S. cerevisiae Proliferating Cell Nuclear Antigen (PCNA), wild type (S. cerevisiae) (UniProt P15873)
Test: crystal structure; wild-type PCNA crystallised with Cy5-labelled primer-template DNA; cubic space group; PCNA placed by molecular replacement; no DNA density; not deposited; both purified

S. cerevisiae Proliferating Cell Nuclear Antigen (PCNA), wild type (from UniProt P15873 1-258)
binding: binds
